Here are results for 2 molecules from article PMC10248867, “Receptor-like cytoplasmic kinase ScRIPK in sugarcane regulates disease resistance and drought tolerance in Arabidopsis” (Frontiers in Plant Science, 2023).

Results are given in words; binding and its absence hold for the method and conditions named. Binding seen in cells or lysates may run through a third protein. Some results given as binding are weak or reduced against the parent protein; the word gives no strength. Tags and fused reporters may be left off the sequences shown.

The target of assay [1] is T1, AtRIN4, BiFC fusion (YC-AtRIN4 / YN-AtRIN4) (Arabidopsis) (UniProt Q8GYN5).
T1 sequence: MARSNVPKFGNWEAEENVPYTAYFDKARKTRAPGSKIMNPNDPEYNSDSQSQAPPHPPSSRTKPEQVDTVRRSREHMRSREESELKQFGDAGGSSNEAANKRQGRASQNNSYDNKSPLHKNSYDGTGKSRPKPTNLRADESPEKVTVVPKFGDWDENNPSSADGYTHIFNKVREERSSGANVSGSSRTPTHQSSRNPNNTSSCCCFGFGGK
Put plainly: split reporter; BiFC: YN and YC fusions transformed into N. benthamiana leaves, confocal imaging after 2 days; three biological replicates.

Assay [2] concerns the target T2, Cluc-AtRIN4 (Arabidopsis) (UniProt Q8GYN5).
T2 sequence: T1 sequence
Put plainly: split reporter; luciferase complementation imaging (LCI): Nluc and Cluc fusions, transient infiltration of N. benthamiana leaves with Agrobacterium GV3101, LUC activity imaged after 2 days.

B1: AtRIPK, BiFC fusion (YN-AtRIPK / YC-AtRIPK) (enzyme, UniProt Q9ZUF4 1-462)
chain: MAVKKKVSWRSLIVGCLGDPETLMASSKKPKRKNDVIKKQSSFQRLSILDMSNPSSNTLSEDLSISLAGSDLHVFTLAELKVITQSFSSTNFLGEGGFGPVHKGFIDDKLRPGLKAQPVAVKLLDLEGLQGHREWLTEVMFLGQLKHKNLVKLIGYCCEEEHRTLVYEFMPRGSLENQLFRRYSASLPWSTRMKIAHGAATGLQFLHEAENPVIYRDFKASNILLDSDYTAKLSDFGLAKDGPEGDDTHVSTRVMGTQGYAAPEYIMTGHLTARSDVYSFGVVLLELLTGRRSVDKKRSSREQNLVDWARPMLNDPRKLSRIMDPRLEGQYSETGARKAATLAYQCLSHRPKNRPCMSAVVSILNDLKDYNDIPMGTFTYTVPNTPDNKEDDGRVGNKPRKSSHHHHHQQQQSNHPRSSPSPTTKSPSPTAKSPRNSTENHRRTLRNGVNSPLRSEAGGERY
With B1, the binding entry in assay [1] is reported as “binds”.

B2: Nluc-AtRIPK (enzyme, UniProt Q9ZUF4 1-462)
chain: B1 chain
For the molecule B2, the binding result in assay [2] is “binds”.
